Experimental findings from paper PMC8377056 are described below.

Protein sequences, listed by entry. Tags and fused reporters are not part of them. Residues count along the entry.
UniProt P35951, residues 22-862: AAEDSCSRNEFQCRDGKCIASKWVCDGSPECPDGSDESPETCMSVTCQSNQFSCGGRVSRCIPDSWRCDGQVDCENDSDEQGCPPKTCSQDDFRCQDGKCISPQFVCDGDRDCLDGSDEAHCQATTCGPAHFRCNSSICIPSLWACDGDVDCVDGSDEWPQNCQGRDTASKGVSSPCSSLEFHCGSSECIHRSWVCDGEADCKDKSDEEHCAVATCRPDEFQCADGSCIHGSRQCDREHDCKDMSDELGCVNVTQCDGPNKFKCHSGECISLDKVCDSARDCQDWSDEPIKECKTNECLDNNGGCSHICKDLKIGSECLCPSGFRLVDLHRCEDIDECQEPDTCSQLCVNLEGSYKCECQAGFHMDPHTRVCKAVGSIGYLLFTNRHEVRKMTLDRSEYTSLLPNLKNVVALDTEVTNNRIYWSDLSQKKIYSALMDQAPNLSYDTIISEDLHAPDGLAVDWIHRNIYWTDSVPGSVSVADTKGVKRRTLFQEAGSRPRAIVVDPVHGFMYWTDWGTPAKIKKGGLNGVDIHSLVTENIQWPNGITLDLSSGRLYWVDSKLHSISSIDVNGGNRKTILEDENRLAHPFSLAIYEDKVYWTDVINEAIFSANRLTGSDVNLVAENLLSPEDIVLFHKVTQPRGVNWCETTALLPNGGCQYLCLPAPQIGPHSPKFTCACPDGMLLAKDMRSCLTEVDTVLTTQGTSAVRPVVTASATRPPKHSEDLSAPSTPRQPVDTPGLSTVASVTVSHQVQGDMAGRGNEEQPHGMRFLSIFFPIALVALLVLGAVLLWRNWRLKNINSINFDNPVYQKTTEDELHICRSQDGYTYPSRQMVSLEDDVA
UniProt P04114, residues 28-4563: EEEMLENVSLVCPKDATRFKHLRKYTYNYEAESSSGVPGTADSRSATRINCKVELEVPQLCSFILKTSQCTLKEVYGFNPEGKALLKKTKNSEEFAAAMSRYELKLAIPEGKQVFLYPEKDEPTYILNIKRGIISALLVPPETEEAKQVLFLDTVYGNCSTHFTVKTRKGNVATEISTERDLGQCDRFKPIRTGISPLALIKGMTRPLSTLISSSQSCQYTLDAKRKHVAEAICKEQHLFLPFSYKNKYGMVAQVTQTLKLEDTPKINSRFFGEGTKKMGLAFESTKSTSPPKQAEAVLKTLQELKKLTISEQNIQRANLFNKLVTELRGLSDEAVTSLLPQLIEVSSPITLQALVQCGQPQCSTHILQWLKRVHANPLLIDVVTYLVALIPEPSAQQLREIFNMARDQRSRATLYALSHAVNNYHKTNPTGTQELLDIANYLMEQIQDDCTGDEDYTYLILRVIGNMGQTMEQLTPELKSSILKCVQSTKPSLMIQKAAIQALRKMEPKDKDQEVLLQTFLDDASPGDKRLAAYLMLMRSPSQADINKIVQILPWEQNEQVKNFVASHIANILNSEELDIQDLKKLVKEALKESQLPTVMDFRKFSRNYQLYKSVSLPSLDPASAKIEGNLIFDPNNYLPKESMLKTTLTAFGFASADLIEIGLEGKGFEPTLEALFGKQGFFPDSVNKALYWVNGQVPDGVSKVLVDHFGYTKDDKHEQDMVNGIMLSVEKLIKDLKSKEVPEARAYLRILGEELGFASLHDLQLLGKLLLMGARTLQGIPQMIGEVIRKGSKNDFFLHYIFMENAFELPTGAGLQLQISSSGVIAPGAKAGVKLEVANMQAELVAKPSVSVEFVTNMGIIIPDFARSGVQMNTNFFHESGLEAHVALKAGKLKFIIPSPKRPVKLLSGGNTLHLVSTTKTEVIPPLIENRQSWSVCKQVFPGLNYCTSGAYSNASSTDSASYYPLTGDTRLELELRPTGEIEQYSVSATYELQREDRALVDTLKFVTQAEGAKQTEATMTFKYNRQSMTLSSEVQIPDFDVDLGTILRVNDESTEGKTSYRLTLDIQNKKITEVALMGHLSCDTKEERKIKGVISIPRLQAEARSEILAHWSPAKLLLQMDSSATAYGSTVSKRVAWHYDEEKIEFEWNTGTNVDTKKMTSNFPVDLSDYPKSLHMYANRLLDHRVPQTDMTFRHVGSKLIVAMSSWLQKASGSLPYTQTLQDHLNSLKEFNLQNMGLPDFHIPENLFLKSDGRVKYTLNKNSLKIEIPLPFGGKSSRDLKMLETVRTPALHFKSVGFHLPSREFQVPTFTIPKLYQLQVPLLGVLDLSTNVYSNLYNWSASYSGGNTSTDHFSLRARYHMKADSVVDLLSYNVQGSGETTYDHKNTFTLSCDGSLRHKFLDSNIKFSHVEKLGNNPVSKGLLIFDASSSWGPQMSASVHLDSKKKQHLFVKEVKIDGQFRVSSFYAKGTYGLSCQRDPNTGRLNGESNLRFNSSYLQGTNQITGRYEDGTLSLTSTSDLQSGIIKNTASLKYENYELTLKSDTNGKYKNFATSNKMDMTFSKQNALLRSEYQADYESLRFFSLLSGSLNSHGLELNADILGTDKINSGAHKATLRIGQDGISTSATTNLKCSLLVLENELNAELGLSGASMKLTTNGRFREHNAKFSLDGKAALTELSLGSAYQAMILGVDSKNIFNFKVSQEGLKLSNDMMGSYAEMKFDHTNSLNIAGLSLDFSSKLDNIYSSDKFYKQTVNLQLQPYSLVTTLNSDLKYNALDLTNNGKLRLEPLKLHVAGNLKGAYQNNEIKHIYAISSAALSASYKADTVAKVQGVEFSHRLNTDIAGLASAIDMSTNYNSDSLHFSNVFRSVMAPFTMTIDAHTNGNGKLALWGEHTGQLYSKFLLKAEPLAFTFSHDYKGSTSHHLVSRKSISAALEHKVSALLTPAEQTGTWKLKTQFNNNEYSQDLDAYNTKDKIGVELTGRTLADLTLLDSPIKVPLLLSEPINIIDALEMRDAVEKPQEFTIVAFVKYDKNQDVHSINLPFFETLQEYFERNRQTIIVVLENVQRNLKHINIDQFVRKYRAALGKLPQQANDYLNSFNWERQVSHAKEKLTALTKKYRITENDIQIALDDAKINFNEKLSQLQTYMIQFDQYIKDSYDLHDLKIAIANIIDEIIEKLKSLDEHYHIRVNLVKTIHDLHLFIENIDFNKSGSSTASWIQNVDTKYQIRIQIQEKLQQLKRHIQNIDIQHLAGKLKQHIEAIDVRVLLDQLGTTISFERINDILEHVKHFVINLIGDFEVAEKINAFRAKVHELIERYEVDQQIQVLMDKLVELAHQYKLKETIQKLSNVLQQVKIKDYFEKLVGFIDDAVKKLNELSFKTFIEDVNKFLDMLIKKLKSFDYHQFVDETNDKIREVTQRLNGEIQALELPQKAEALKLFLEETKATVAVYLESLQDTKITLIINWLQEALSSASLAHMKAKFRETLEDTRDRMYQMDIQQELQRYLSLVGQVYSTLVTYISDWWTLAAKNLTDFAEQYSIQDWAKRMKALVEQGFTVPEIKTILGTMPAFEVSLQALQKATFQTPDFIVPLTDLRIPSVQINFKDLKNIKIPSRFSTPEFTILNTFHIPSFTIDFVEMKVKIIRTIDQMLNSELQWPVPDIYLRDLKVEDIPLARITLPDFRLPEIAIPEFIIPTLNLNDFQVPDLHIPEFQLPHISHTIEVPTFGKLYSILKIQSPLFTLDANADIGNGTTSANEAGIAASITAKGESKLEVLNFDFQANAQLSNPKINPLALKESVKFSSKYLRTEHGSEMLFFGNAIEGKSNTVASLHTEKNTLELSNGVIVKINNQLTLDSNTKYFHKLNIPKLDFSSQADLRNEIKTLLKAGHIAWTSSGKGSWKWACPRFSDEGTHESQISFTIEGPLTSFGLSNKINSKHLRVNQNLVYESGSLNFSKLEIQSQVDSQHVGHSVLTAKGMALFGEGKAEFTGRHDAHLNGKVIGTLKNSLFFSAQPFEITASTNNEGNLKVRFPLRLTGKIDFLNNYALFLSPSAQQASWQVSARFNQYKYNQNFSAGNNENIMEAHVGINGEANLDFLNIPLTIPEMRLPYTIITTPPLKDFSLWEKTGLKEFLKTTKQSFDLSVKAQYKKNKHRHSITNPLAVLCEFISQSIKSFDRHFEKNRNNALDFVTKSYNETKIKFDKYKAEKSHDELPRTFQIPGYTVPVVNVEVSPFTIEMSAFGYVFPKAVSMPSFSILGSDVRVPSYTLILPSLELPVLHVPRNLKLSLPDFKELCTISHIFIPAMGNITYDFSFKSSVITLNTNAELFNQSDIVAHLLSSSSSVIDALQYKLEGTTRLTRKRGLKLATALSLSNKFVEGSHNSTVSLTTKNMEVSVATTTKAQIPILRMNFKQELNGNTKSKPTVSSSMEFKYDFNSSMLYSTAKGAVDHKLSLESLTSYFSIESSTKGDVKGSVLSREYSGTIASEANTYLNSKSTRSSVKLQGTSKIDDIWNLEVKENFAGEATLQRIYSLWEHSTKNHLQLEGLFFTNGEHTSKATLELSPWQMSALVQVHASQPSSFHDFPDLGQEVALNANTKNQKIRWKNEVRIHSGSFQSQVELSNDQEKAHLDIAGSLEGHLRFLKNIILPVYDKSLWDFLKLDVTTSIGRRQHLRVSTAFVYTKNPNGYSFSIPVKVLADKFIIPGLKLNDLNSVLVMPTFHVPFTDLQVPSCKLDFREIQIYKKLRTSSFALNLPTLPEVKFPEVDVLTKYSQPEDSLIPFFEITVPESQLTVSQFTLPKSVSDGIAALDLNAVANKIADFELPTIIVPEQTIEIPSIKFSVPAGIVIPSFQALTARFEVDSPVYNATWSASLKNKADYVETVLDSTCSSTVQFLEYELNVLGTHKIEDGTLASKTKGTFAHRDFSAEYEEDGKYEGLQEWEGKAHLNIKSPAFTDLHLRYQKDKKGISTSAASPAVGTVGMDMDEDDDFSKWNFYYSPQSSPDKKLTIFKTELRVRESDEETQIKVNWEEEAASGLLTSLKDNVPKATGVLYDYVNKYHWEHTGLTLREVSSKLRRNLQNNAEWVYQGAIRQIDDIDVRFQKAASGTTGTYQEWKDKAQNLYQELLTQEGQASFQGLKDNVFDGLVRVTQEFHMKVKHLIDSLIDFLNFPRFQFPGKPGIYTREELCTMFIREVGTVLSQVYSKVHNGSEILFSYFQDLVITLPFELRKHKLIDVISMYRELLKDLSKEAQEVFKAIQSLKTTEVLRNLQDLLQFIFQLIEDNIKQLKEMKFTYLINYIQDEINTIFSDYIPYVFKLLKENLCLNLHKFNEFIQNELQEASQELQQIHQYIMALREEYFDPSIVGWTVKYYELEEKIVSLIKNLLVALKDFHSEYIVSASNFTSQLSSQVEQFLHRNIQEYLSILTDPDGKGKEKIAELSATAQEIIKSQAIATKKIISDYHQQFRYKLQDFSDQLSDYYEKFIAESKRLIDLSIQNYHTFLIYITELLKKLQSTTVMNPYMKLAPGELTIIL

These are yes or no findings as the source states them, for the method shown. Some results given as binding are weak or reduced against the parent protein; the word gives no strength.

The target in the assay is LDLR on Ldlr WT PK4A cells (mouse (endogenous in PK4A)) (UniProt P35951). Description: flow cytometry on cells; Ldlr WT or KO PK4A cells incubated with conjugate (20 nM) with or without DiI-LDL (20 ug/ml) in DMEM-1% BSA for 6 h; half of the cells acid-stripped (pH 3) to tell total (bound and internalized) from intracellular signal; only the binder purified. For orientation: In flow cytometry, cells or beads pass a laser one at a time.

In the case of “fluorescent LDL (DiI-LDL) (from UniProt P04114 28-4563) (ligand)”, the binding entry is listed as “binds”.
